This is an account of results in the supplement of paper PMC10849652.

Protein sequences, listed by entry. Tags and fused reporters are not part of them. Lines headed by an entry give the natural chain unless they say otherwise; changes in a name come on top.
UniProt P55010, whole entry, looked up: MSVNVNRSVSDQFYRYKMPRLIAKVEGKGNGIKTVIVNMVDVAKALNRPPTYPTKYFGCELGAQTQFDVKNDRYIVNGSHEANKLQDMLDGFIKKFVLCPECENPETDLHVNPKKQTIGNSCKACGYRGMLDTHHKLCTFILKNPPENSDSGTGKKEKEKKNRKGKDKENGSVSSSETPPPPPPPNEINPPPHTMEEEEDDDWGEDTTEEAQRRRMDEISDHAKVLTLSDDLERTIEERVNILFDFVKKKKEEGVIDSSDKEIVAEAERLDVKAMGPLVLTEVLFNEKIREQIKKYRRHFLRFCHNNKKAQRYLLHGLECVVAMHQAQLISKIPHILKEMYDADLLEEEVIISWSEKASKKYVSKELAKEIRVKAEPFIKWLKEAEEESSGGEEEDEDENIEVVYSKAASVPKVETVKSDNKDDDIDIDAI
UniProt Q14232, whole entry, looked up: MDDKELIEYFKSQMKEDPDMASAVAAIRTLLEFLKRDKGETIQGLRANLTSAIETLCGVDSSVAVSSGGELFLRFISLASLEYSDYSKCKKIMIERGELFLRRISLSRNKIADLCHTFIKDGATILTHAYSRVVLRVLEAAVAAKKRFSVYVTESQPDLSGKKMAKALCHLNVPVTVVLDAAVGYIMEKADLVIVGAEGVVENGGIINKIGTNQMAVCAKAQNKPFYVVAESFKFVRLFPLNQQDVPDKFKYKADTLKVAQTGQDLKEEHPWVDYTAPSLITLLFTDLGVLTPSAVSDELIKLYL
UniProt O43402: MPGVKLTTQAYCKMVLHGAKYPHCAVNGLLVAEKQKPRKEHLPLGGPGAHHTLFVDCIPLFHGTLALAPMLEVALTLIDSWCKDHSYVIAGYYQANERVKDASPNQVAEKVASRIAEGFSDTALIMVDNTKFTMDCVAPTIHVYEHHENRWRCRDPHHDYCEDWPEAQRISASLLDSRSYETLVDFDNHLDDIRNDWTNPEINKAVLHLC
UniProt O60841: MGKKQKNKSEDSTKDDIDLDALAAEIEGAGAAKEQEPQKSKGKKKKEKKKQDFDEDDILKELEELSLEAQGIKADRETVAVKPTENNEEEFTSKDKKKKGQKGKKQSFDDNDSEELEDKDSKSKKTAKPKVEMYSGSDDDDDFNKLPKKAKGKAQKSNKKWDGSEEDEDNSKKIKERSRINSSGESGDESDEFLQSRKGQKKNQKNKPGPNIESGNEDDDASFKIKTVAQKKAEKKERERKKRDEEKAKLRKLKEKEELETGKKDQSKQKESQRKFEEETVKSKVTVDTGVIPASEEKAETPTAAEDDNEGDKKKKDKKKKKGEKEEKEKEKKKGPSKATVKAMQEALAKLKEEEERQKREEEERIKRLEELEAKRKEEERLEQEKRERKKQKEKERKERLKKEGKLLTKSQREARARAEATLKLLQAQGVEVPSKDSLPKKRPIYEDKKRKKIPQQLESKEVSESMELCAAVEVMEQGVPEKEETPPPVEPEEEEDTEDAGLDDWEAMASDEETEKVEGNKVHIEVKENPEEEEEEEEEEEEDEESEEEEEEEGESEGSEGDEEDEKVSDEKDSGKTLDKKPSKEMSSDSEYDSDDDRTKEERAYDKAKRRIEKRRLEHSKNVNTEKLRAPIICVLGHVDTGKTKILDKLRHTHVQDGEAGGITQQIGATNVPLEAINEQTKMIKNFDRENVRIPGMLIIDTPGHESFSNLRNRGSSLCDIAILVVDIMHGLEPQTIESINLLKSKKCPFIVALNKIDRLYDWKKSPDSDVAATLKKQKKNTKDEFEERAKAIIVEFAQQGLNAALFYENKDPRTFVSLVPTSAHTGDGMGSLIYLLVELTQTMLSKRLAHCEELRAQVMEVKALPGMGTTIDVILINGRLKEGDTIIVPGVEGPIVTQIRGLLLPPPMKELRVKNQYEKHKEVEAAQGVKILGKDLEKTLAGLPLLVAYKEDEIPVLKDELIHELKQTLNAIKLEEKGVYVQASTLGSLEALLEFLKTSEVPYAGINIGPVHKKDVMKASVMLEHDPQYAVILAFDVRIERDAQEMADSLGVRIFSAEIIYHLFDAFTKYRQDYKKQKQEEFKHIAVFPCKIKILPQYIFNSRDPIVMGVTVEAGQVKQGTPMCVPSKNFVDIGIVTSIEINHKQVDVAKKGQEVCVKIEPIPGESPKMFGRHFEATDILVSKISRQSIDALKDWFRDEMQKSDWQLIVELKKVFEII
UniProt Q96C19: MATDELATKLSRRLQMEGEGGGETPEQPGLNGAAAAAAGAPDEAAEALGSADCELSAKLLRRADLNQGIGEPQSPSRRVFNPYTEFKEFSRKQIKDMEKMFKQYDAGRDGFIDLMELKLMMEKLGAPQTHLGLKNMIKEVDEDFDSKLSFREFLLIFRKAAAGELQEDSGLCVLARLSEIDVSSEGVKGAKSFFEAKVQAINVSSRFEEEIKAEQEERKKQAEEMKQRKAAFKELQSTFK
UniProt Q8N9N8: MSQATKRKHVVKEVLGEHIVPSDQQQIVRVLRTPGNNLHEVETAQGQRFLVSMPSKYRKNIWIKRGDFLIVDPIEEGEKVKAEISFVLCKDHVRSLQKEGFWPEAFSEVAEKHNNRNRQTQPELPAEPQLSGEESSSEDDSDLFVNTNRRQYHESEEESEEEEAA
UniProt O95163: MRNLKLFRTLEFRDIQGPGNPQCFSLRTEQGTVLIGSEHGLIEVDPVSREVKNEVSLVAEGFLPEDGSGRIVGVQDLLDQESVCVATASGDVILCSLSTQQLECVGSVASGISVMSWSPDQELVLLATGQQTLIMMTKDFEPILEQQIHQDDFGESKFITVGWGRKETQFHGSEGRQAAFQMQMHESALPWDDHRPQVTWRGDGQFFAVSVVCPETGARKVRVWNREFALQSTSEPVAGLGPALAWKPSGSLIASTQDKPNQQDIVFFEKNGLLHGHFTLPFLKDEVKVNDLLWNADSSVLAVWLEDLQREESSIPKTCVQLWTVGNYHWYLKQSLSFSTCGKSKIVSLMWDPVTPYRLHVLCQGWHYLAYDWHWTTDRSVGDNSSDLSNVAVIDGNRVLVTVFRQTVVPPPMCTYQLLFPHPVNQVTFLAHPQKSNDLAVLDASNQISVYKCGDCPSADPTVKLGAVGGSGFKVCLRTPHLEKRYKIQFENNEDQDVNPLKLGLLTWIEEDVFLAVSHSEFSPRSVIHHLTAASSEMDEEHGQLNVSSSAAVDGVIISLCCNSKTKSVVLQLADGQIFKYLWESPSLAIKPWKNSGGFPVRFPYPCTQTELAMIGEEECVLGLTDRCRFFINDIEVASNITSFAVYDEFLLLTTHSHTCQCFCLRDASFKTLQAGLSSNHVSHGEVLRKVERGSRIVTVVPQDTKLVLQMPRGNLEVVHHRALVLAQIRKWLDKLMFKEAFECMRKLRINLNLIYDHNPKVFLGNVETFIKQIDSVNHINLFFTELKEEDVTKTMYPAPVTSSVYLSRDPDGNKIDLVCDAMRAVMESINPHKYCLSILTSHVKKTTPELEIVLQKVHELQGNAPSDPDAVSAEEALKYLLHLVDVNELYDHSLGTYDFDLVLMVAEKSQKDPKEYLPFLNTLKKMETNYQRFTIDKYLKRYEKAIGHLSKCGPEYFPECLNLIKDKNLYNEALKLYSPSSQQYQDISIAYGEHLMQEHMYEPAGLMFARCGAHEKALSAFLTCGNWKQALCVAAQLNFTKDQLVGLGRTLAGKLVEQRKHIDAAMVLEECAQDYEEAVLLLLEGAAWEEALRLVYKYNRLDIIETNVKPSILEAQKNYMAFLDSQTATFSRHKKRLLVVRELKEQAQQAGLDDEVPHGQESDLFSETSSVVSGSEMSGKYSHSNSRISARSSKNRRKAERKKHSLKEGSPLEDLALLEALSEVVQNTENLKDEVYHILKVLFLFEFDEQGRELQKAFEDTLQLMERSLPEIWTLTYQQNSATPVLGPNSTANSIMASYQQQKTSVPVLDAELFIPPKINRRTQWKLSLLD
UniProt Q13347, whole entry, looked up: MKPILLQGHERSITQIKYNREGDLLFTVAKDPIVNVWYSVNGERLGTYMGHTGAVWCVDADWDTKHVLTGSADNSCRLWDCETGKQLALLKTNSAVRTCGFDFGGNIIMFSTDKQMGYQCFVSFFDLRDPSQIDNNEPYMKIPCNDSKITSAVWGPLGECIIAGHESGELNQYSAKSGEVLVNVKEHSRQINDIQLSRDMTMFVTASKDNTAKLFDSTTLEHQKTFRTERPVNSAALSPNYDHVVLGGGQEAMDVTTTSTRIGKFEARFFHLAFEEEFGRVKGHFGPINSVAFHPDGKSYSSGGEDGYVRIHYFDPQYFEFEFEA
UniProt O00303, whole entry, looked up: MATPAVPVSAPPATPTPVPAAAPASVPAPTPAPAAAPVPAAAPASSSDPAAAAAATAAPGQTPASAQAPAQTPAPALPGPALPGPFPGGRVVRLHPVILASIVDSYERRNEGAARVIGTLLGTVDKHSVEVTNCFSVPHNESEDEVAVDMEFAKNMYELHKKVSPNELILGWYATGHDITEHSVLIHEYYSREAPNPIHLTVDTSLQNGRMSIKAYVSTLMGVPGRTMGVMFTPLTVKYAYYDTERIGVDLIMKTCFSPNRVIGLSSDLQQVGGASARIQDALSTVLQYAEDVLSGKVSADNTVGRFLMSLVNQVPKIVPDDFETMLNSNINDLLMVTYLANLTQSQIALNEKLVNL
UniProt P41567, whole entry, looked up: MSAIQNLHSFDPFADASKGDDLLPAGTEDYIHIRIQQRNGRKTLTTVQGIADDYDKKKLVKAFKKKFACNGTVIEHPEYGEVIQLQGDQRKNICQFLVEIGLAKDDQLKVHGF
UniProt Q14249: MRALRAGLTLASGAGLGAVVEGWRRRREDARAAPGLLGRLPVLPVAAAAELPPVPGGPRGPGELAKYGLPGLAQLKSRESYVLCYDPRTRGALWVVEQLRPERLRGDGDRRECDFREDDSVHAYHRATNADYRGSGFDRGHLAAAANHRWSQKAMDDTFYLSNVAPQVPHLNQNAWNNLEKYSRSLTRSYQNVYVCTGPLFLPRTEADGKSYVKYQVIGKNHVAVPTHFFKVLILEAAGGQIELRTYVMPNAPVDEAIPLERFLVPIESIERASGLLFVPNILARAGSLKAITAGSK
UniProt Q9H223: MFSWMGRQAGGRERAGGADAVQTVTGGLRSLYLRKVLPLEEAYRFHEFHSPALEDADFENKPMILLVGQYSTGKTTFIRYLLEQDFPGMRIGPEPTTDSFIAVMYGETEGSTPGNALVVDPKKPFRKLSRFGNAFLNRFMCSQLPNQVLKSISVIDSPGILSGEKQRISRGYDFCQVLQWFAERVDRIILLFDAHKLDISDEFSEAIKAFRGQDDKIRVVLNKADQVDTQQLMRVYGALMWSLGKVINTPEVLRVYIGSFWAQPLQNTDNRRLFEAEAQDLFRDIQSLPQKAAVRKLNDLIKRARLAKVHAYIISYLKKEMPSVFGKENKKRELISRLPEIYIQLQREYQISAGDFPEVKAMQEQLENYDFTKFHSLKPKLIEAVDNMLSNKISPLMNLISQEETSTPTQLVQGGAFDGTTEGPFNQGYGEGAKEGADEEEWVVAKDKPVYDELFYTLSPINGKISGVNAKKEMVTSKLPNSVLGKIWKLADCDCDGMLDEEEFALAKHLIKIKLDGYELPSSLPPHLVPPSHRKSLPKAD

The other results are listed elsewhere or left out.

Compound in this assay: c1cn2cc(-c3ccc4cn[nH]c4c3)nc(Nc3ccc(N4CCOCC4)cc3)c2n1 [entospletinib]
The assay is described as follows: log2 fold change, soluble protein after heating vs DMSO (PISA); higher = thermal stabilisation; K562 cells, 10 uM, 30 min; active = over 0.2 and 3.5 SD of the protein, either way, in both replicates (recomputed). Summed up:
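Thermal stability values are relative to control samples and come from duplicates. They are expressed as log2 fold changes. For measurement, K562 cells (2×10^6 cells/mL) received 10 μM compound for 30 min, and aliquots were heated for 3 min over 48°C-58°C, pooled, and extracted at 4°C in PBS with 0.5% NP-40. Soluble protein, the supernatant after 21,000xg for 90 min, was quantified by TMTpro 16plex LC-MS/MS with equalised channel sums.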
As to EIF5 (UniProt P55010), the log2 fold change was inactive: 0.007.
As to EIF2B1 (UniProt Q14232), the log2 fold change is inactive: -0.003.
For EMC8 (UniProt O43402), the log2 fold change is inactive: 0.025.
With EIF4H (UniProt Q15056), the log2 fold change was inactive: 0.003.
EIF5B (UniProt O60841): the log2 fold change was inactive: -0.004.
On to EFHD2 (UniProt Q96C19), for which the log2 fold change was inactive: -0.026.
With EIF1AD (UniProt Q8N9N8), the log2 fold change was inactive: 0.02.
The same measure for ELP1 (UniProt O95163): inactive: -0.011; for EIF3I (UniProt Q13347): inactive: 0.08.
The same measure for EIF3F (UniProt O00303): inactive: 0.04.
Take EIF1 (UniProt P41567): the log2 fold change is inactive: 0.001.
Regarding ENDOG (UniProt Q14249), the log2 fold change is inactive: -0.015.
Consider EHD4 (UniProt Q9H223), for which the log2 fold change was inactive: -0.021.
